This experiment is described as follows: qHTS Assay for Lipid Storage Modulators in Drosophila S3 Cells.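 On cell number change: cells counted by Cell Tracker Red CMTPX staining in the red channel.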 The following applies: BODIPY lipid droplet fluorescence, 18-24 h; for cell number change: measured here: cell count max response, cells fed with added oleic acid. The procedure, abridged: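 Drosophila S3 cells got compounds at several concentrations plus oleic acid (400 uM solution). Laser-scanning cytometry with 488 nm excitation read lipid droplets at 500-530 nm and cells at 575-640 nm. Percent activity was relative to 20 uM Triacsin C.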
(Quantitative high-throughput screening tests each substance at several concentrations.)

The mark [1] stands for this setting: measured here: lipid fluorescence (Fed channel) AC50, cells fed with added oleic acid.
[2] abbreviates: measured here: cell number channel AC50, cells fed with added oleic acid.

The structures appear in SMILES notation. The list shows a part of the results. These are further read-outs of the screen, such as a control signal, another cell line or another target. No call is given for them. Compounds called inactive in the main read-out are mostly missing here. Words in brackets tell the shape of the fitted curve; partial curves, single points and poor fits give uncertain potencies.

With `Cc1ccc(C(=O)Nc2ccc3c(c2)C(=O)N(CC2CCCO2)C3=O)cc1` (configuration not stated), the cell number change was -18.5%.

In the case of `O=C(COC(=O)CNC(=O)c1ccccc1)Nc1nc(-c2ccccc2)cs1`, the cell number change stood at 17.1%. In addition, the AC50 – broadly, the concentration giving half of the maximal activity seen – under setting [1] is 13 µM [rising, partial curve, poor fit].

With `CCN(CC)S(=O)(=O)c1ccc(OC)c(NC(=O)CC2CCCC2)c1`, the cell number change was -19%. Also, the half-maximal activity concentration (AC50) under setting [1] was 29.1 µM [falling, single point].

Regarding `CC(C)c1nc(NCC2CCCO2)c(C#N)c2c1COC(C)(C)C2` (configuration not stated), the cell number change was -38.2%. In addition, under setting [2], the AC50 was 23.1 µM [falling, partial curve]. For the same compound, the half-maximal activity concentration (AC50) under setting [1] is 32.6 µM [falling, single point].

Consider `CC(C)c1ccccc1NC(=O)CNC(C)c1ccc(F)cc1` (configuration not stated), for which the AC50 reads like this: under setting [2], 0.411 µM [rising, partial curve]; under setting [1], 0.517 µM [rising, partial curve].

With `S=c1[nH]nc(-c2ccccc2Cl)n1CC1CCCO1` (configuration not stated), the cell number change is -13.8%.

`COc1cc(/C=C/C(=O)OCC(=O)N2c3ccccc3CC2C)cc(OC)c1OC` (configuration not stated): the cell number change is -14.4%. Moreover, the AC50 under setting [1] was 0.103 µM [rising, full curve, poor fit].

`Cc1noc(C)c1S(=O)(=O)N1CCC2(CC1)OCCO2`: under setting [1], the AC50 was 6.51 µM [falling, single point].

Regarding `c1ccc(-n2ncc3c(NCC4CCCO4)ncnc32)cc1` (configuration not stated), the cell number change is -0.995%. Under setting [1], the concentration at half-maximal activity (AC50) was 0.0058 µM [falling, full curve, poor fit].

In the case of `Cc1noc(/C=C/c2cccs2)c1S(=O)(=O)N1CCC(C(=O)NCCCN2CCCC(C)C2)CC1` (configuration not stated), the cell number change was -16.2%. For the same compound, the AC50 under setting [2] is 0.206 µM [falling, full curve]. The AC50 under setting [1] was 0.13 µM [falling, full curve, poor fit].

For `CC(=O)c1ccc(N2Cc3ccccc3C3(CCOCC3)C2=N)cc1`, the cell number change is 98.7%.

With `O=C1NCCN1C(=O)N(c1ccccc1)c1ccccc1`, the cell number change was -18.6%. The concentration at half-maximal activity (AC50) under setting [1] was 5.8 µM [falling, partial curve].

As to `Cc1ccccc1OCC(=O)NC1CCCCCCC1`, the cell number change is -20%.

With `CC1C(=O)Nc2ccc(S(=O)(=O)N3CCN(c4cccc(Cl)c4)CC3)cc2NC1=O` (configuration not stated), the cell number change is 4.03%.

For the compound `C=CCN1C(c2cccc(C(F)(F)F)c2)=CS/C1=C(/C#N)c1nnc(N2CCOCC2)n1-c1ccccc1`, the cell number change came to 18.7%. The concentration at half-maximal activity (AC50) under setting [1] is 2.59 µM [rising, partial curve, poor fit].

`Cc1cccc(Oc2cc(N)cc([N+](=O)[O-])c2)c1`: the cell number change was -34%. For the same compound, under setting [2], the AC50 is 7.31 µM [falling, partial curve, poor fit]. Besides, under setting [1], the concentration at half-maximal activity (AC50) was 29.1 µM [falling, single point].

Turning to `COC(=O)c1cccc(NC(=O)c2ccc[n+]([O-])c2)c1`, the cell number change was -8.76%.

`Nn1c(SCC(=O)N2CCCCCC2)nnc1-c1ccncc1`: under setting [1], the concentration at half-maximal activity (AC50) was 3.26 µM [falling, partial curve].

For `Cc1cccc(NC(=O)CCCN2C(=S)NC(C)(C)CC2C)c1C` (configuration not stated), the cell number change is -0.88%. The AC50 under setting [2] was 0.651 µM [falling, single point].

Take `CC(C)[C@H](NC(=O)N1CC(=O)Nc2ccccc21)C(=O)N1CCC(C(=O)O)CC1`: the AC50 under setting [1] was 0.164 µM [rising, single point].

As for `Cc1ccc(S(=O)(=O)Oc2ccc(/C=C(/NC(=O)c3ccccc3)C(=O)Nc3ccccc3)cc2)cc1`, the cell number change stood at 6.13%. Moreover, under setting [2], the AC50 was 0.00461 µM [falling, full curve, poor fit].

`CCOC(=O)C1=C(CNC(C)(C)CC(C)(C)C)NC(=O)NC1c1cccc([N+](=O)[O-])c1` (configuration not stated): the cell number change was determined as 6.37%. Also, the half-maximal activity concentration (AC50) under setting [1] was 29.1 µM [falling, single point].

Regarding `Nc1cc(=O)[nH]c(SCC(=O)Nc2ccc(Br)cc2)n1`, the cell number change is 7.37%. Further, the concentration at half-maximal activity (AC50) under setting [2] was 1.64 µM [falling, partial curve]. Under setting [1], the AC50 was 20.6 µM [falling, partial curve].

Consider `Cc1cc(N2CCN(C)CC2)nc2ccc(NC(=O)c3cccnc3Cl)cc12`, for which the cell number change was -4.08%.

For the compound `CCN(CC)c1ccc(C(=O)NNC(=O)c2ccc3c(=O)n4c(nc3c2)CCC4)cc1`, the cell number change was -1.24%. Also, the concentration at half-maximal activity (AC50) under setting [1] was 3.66 µM [rising, partial curve, poor fit].

Turning to `O=C(Cn1c(=O)oc2ccccc21)Nc1nc(-c2ccc(Br)cc2)cs1`, the cell number change is -14.3%.

Regarding `O=C(NC1CCCC1)C(c1cccs1)N(C(=O)c1ccco1)c1ccc2c(c1)OCCO2` (configuration not stated), the cell number change was -4.63%. Under setting [1], the half-maximal activity concentration (AC50) was 0.731 µM [falling, full curve, poor fit].

For the compound `CC(=O)Nc1ccc(/C(C)=N/NC(=O)c2ccccc2Cl)cc1`, the cell number change is -4.64%. The AC50 under setting [1] was 0.461 µM [rising, partial curve].

Take `Cc1ccc(C(=O)OCC(=O)NCc2ccco2)s1`: the cell number change is -59.3%. Besides, the concentration at half-maximal activity (AC50) under setting [2] is 18.4 µM [falling, single point]. The AC50 under setting [1] is 18.4 µM [falling, single point].

As for `CCOc1cc(CNC(C)(C)C)ccc1OCC(=O)Nc1cccc(C(F)(F)F)c1`, the cell number change is 31.3%.

In the case of `CCOc1ccc(CCNC(=O)CSc2n[nH]c(N)n2)cc1OCC`, the cell number change is 27.9%. Also, the AC50 under setting [1] was 13 µM [rising, partial curve, poor fit].

As to `CN1CCN(C(=O)CCCN2C(=O)/C(=C/c3ccccc3)SC2=S)CC1`, the AC50 under setting [1] is 0.231 µM [falling, full curve].

For `O=C(NCCCN1CCOCC1)c1cc(-c2cccs2)on1`, the cell number change was -35.9%. The half-maximal activity concentration (AC50) under setting [1] is 0.164 µM [falling, full curve, poor fit].

For `O=C(Nc1ccc(Cl)c(C(F)(F)F)c1)C1CCCN(S(=O)(=O)c2cnc[nH]2)C1` (configuration not stated), the cell number change stood at 12.4%.

As for `COc1ccc(NC(=S)NCCN2CCC(C)CC2)cc1`, the cell number change stood at 3.65%. Moreover, under setting [1], the concentration at half-maximal activity (AC50) is 1.12 µM [falling, full curve].

On to `COc1ccc(S(C)(=O)=O)cc1S(C)(=O)=O`, for which the cell number change was -9.26%.

On to `CCOC(=O)N1CCC(NC(=O)C2CCN(C(=O)N3CC(C)Oc4ccc(C)cc43)CC2)CC1` (configuration not stated), for which the cell number change was -17.5%. Also, under setting [2], the half-maximal activity concentration (AC50) was 0.326 µM [falling, full curve, poor fit].

Consider `CC1CCCc2sc3nc(NCc4ccco4)n4ncnc4c3c21` (configuration not stated), for which the cell number change was -37%. For the same compound, under setting [2], the AC50 was 14.6 µM [falling, single point]. The concentration at half-maximal activity (AC50) under setting [1] was 18.4 µM [falling, single point].

`CCOC(=O)c1cc(C(C)=O)c(=O)[nH]c1C`: the cell number change is -2.16%. The AC50 under setting [1] is 0.411 µM [rising, single point].

On to `CC(=O)Nc1cccc(C(=O)N(Cc2ccccc2)Cc2ccccc2)c1`, for which the cell number change was -33.9%. Further, under setting [2], the AC50 was 25.9 µM [falling, single point]. In addition, the half-maximal activity concentration (AC50) under setting [1] is 20.6 µM [falling, single point].

For the origin of these results see PubChem BioAssay AID2685 (National Center for Advancing Translational Sciences (NCATS), 2010).
